Experimental data taken from US20150065444A1.
No constants are given. Whether binding was seen depends on the method and setting. Some results given as binding are weak or reduced against the parent protein; the word gives no strength. Where a sequence is shown, tags or fusion partners need not be part of it.

Tests used:
[1] = target: T1, Arm1 (acidic residue methyltransferase, C6orf211 protein), endogenous in SK-Br-3 cell extracts (Homo sapiens) (UniProt Q9H993); assay: SK-Br-3 cells transfected with control or Flag-Rev1 plasmids, harvested 6 h after UV irradiation; detection method not described
T1 sequence: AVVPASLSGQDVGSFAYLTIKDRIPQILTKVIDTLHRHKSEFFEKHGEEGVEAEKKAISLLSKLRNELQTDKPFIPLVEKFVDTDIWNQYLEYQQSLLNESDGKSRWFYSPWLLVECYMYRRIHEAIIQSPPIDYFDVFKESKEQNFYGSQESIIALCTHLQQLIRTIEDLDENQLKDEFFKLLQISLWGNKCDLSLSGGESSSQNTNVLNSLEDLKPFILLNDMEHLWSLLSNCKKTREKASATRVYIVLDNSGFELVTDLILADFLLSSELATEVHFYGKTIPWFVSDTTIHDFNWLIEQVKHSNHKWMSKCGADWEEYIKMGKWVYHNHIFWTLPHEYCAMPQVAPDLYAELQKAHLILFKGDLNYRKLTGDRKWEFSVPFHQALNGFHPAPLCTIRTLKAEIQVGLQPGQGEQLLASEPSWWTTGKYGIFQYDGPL

[2] = target: T1, Arm1 (acidic residue methyltransferase, C6orf211 protein), endogenous in SK-Br-3 cell extracts (Homo sapiens); assay: SK-Br-3 cells transfected with Flag-Rev1 (FIG. 4d)

binding [1]: binds | binding [2]: binds
B1: Flag-Rev1 (protein, human, UniProt Q9UBZ9 1-1251, looked up, not shown: small tags and cut ends)
chain: MRRGGWRKRAENDGWETWGGYMAAKVQKLEEQFRSDAAMQKDGTSSTIFSGVAIYVNGYTDPSAEELRKLMMLHGGQYHVYYSRSKTTHIIATNLPNAKIKELKGEKVIRPEWIVESIKAGRLLSYIPYQLYTKQSSVQKGLSFNPVCRPEDPLPGPSNIAKQLNNRVNHIVKKIETENEVKVNGMNSWNEEDENNDFSFVDLEQTSPGRKQNGIPHPRGSTAIFNGHTPSSNGALKTQDCLVPMVNSVASRLSPAFSQEEDKAEKSSTDFRDCTLQQLQQSTRNTDALRNPHRTNSFSLSPLHSNTKINGAHHSTVQGPSSTKSTSSVSTFSKAAPSVPSKPSDCNFISNFYSHSRLHHISMWKCELTEFVNTLQRQSNGIFPGREKLKKMKTGRSALVVTDTGDMSVLNSPRHQSCIMHVDMDCFFVSVGIRNRPDLKGKPVAVTSNRGTGRAPLRPGANPQLEWQYYQNKILKGKAADIPDSSLWENPDSAQANGIDSVLSRAEIASCSYEARQLGIKNGMFFGHAKQLCPNLQAVPYDFHAYKEVAQTLYETLASYTHNIEAVSCDEALVDITEILAETKLTPDEFANAVRMEIKDQTKCAASVGIGSNILLARMATRKAKPDGQYHLKPEEVDDFIRGQLVTNLPGVGHSMESKLASLGIKTCGDLQYMTMAKLQKEFGPKTGQMLYRFCRGLDDRPVRTEKERKSVSAEINYGIRFTQPKEAEAFLLSLSEEIQRRLEATGMKGKRLTLKIMVRKPGAPVETAKFGGHGICDNIARTVTLDQATDNAKIIGKAMLNMFHTMKLNISDMRGVGIHVNQLVPTNLNPSTCPSRPSVQSSHFPSGSYSVRDVFQVQKAKKSTEEEHKEVFRAAVDLEISSASRTCTFLPPFPAHLPTSPDTNKAESSGKWNGLHTPVSVQSRLNLSIEVPSPSQLDQSVLEALPPDLREQVEQVCAVQQAESHGDKKKEPVNGCNTGILPQPVGTVLLQIPEPQESNSDAGINLIALPAFSQVDPEVFAALPAELQRELKAAYDQRQRQGENSTHQQSASASVPKNPLLHLKAAVKEKKRNKKKKTIGSPKRIQSPLNNKLLNSPAKTLPGACGSPQKLIDGFLKHEGPPAEKPLEELSASTSGVPGLSSLQSDPAGCVRPPAPNLAGAVEFNDVKTLLREWITTISDPMEEDILQVVKYCTDLIEEKDLEKLDLVIKYMKRLMQQSVESVWNMAFDFILDNVQVVLQQTYGSTLKVT
